For three molecules, Odor description results are on record in patent US20180230399A1, “ORGANIC COMPOUNDS” (GIVAUDAN SA, priority 2014, published 2018).

The data set is described as follows: Odor description.

`Cc1cc(CC(C)C)ccc1CCCC=O` [Example 3, 4-(4-Isobutyl-2-methylphenyl)butanal]: the Odor description result is recorded as “floral, green, lilial, silvial, strong”.

As for `CC(C)(C)c1ccc(CCCC=O)cc1` [Example 1, 4-(4-(tert-Butyl)phenyl)butanal], the Odor description entry was “fatty, waxy, floral, weak”.

Regarding `CC(C)Cc1ccc(CCCC=O)cc1` [Example 2, 4-(4-(Isobutyl)phenyl)butanal], the Odor description result is given as “fruity, aldehydic, floral, green, fatty, strong”.
